We go through one substance from publication PMC11980659.

Chains of the proteins cited; added tags and fusions are not shown. Lines headed by an entry give the natural chain unless they say otherwise; changes in a name come on top.
UniProt Q02248: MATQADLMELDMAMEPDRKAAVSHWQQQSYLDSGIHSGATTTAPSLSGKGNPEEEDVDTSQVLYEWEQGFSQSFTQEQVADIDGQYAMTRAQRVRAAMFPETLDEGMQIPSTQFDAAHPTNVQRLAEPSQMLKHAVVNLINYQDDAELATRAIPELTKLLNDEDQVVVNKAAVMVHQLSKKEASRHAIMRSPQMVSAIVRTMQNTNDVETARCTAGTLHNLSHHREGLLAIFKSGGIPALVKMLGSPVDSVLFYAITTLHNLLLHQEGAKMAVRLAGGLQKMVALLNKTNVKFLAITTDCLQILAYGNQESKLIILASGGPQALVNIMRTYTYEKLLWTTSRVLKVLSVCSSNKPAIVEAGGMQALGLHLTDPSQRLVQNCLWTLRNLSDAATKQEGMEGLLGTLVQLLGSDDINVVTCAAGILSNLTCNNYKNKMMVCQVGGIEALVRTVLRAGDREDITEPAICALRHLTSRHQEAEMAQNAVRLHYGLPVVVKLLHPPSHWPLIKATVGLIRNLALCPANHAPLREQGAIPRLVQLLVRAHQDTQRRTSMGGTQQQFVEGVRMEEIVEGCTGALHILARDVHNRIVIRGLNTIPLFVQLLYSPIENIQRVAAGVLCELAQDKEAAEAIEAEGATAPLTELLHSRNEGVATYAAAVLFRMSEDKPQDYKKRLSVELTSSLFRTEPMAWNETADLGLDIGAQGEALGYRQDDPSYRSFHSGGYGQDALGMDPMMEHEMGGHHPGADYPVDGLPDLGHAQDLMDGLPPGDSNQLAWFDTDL
UniProt P18760: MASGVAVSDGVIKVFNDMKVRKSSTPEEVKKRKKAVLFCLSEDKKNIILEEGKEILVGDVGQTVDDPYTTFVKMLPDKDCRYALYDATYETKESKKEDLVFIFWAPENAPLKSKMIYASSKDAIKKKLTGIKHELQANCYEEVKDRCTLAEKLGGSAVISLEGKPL

No constants are given. Whether binding was seen depends on the method and setting. Binding seen in cells or lysates may run through a third protein. Binding can be weak; no strength is given.

For this experiment, the target named is β-catenin (endogenous, β-catenin^Δ(ex3)/+ MEFs) (mouse (endogenous in MEFs)) (UniProt Q02248). Nature of the experiment: co-IP; endogenous proteins in β-catenin^Δ(ex3)/+ MEFs.

In the case of “Cofilin 1 (endogenous, β-catenin^Δ(ex3)/+ MEFs) (from UniProt P18760 1-166)”, the binding result is “binds”.
